Laboratory results: PubChem BioAssay AID504808 (Drosophila RNAi Screening Center, 2011)

Aim: 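Fly genes required to hold E2F transcription in check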 (primary screen)
System: Drosophila S2 cells
Reagent: long dsRNA against Drosophila genes
Measurement: 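Dual luciferase plate measurements; E2F-specific signal taken as firefly over Renilla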
Direction: E2F firefly: higher = more E2F reporter activity; Renilla normaliser: higher = more normaliser reporter signal
Hit rule: 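a knock-down counted as active when the firefly/Renilla E2F signal rose above 50%, a threshold chosen arbitrarily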
The screen tested about 21,000 reagents; this is a random part of those that have a named target and a result. Over the whole deposit, 18 (0.084%) got an active call. 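Raw counts without plate normalisation, one of two replicates; the ratio scores behind the calls were not deposited.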 Entries without a mark were called inactive. Reagents against one gene are numbered here. Names joined by + are all predicted targets of the reagent. The record does not give: the amount of reagent, the time to read-out.

| gene | reagent no. | E2F firefly, rep 1 | Renilla normaliser, rep 1 |
| --- | --- | --- | --- |
| CG6766 | 1 | 1.02e5 | 4293 |
| fd3F + CG42499 (retired record) | 1 | 1.03e5 | 7919 |
| fd3F + CG42499 (retired record) | 2 | 1.28e5 | 9683 |
| CG4477 | 1 | 66603 | 404 |
| HIP + HIP-R | 1 | 1840 | 992 |
| CrzR (Corazonin receptor) | 1 | 1.32e5 | 6743 |
| CrzR (Corazonin receptor) | 2 | 1.25e5 | 6546 |
| CG17646 | 1 | 92183 | 3934 |
| CG4476 | 1 | 82429 | 3192 |
| CG12231 | 1 | 1.38e5 | 6697 |
| Acph-1 (Acid phosphatase 1) | 1 | 1.10e5 | 6738 |
| CG13108 | 1 | 1.33e5 | 5089 |
| Hr78 (Hormone-receptor-like in 78) | 1 | 71125 | 3091 |
| MAN1 | 1 | 74899 | 3765 |
| cn (cinnabar) | 1 | 1.25e5 | 4956 |
| Top3beta (Topoisomerase 3beta) | 1 | 7575 | 740 |
| CG15602 | 1 | 1.54e5 | 5674 |
| CG32712 | 1 | 6919 | 880 |
| CG31266 | 1 | 1.29e5 | 5896 |
| CG6462 | 1 | 86236 | 3373 |
| CG33631 | 1 | 75014 | 3883 |
| CG13339 | 1 | 91607 | 4560 |
| Pex14 (Peroxin 14) | 1 | 1.33e5 | 6565 |
| CG44098 | 1 | 1.51e5 | 6418 |
| CG44098 | 2 | 1.41e5 | 7733 |
| CG17002 | 1 | 85674 | 3688 |
| CG9377 | 1 | 71960 | 3133 |
| Atac2 (Ada2a-containing complex component 2) | 1 | 1.05e5 | 3616 |
| CG2145 | 1 | 7818 | 832 |
| Cyp40 (Cyclophilin 40) | 1 | 73350 | 3578 |
| CG5323 | 1 | 1.50e5 | 5271 |
| CG6415 | 1 | 79357 | 3293 |
| CG3679 | 1 | 8160 | 732 |
| rdgBbeta | 1 | 1.48e5 | 5784 |
| CG31109 | 1 | 1.16e5 | 5842 |
| Nhe1 (Na[+]/H[+] hydrogen exchanger 1) | 1 | 90282 | 3625 |
| Or47b (Odorant receptor 47b) | 1 | 1.00e5 | 4001 |
| E(spl)m5-HLH (Enhancer of split m5, helix-loop-helix) | 1 | 1.15e5 | 6330 |
| galla-2 | 1 | 1.15e5 | 6022 |
| CG6739 | 1 | 1.47e5 | 4675 |
| CG7029 | 1 | 66819 | 4982 |
| SerRS (Seryl-tRNA synthetase) | 1 | 93686 | 3643 |
| Tgi (Tondu-domain-containing Growth Inhibitor) | 1 | 1.26e5 | 7311 |
| Tgi (Tondu-domain-containing Growth Inhibitor) | 2 | 1.36e5 | 6865 |
| Clc (Clathrin light chain) | 1 | 74927 | 3589 |
| bc10 | 1 | 95105 | 3536 |
| CG11664 | 1 | 38083 | 3233 |
| Arp10 (Actin-related protein 10) | 1 | 1.50e5 | 6605 |
| spn-E (spindle E) | 1 | 1.20e5 | 7007 |
| CG14277 | 1 | 1.30e5 | 5217 |
| PCID2 (PCI domain-containing protein 2) | 1 | 79148 | 3353 |
| UQCR-Q (Ubiquinol-cytochrome c reductase ubiquinone-binding protein) | 1 | 1.69e5 | 7287 |
| CG4101 | 1 | 1.66e5 | 8126 |
| CdGAPr (Cd GTPase activating protein-related) | 1 | 98329 | 3943 |
| Upf1 (Upf1 RNA helicase) | 1 | 6936 | 784 |
| Trs31 (TRAPP subunit 31) | 1 | 163 | 38 |
| CG17633 | 1 | 1.39e5 | 5158 |
| CG7352 | 1 | 1.43e5 | 5939 |
| CG12486 (retired record) | 1 | 1.64e5 | 7574 |
| CG17999 | 1 | 81030 | 3887 |
| Prosbeta1 (Proteasome beta1 subunit) | 1 | 52874 | 3272 |
| Ppox (Protoporphyrinogen oxidase) | 1 | 1.10e5 | 5307 |
| IntS8 (Integrator 8) | 1 | 87224 | 3533 |
| plu (plutonium) | 1 | 1.49e5 | 5006 |
| Rpt6 (Regulatory particle triple-A ATPase 6) | 1 | 1.69e5 | 6046 |
| mRRF2 (mitochondrial ribosome recycling factor 2) | 1 | 1.01e5 | 7376 |
| Cdc23 (Cell division cycle 23) | 1 | 82771 | 3627 |
| CG12133 | 1 | 1.56e5 | 4684 |
| Rbbp5 + CG6434 (retired record) | 1 | 1.28e5 | 6309 |
| CG30158 | 1 | 1.43e5 | 5510 |
| CG30158 | 2 | 1.41e5 | 4582 |
| CG30158 | 3 | 1.56e5 | 4586 |
| CG30158 | 4 | 1.47e5 | 4941 |
| Acp53Ea (Accessory gland protein 53Ea) | 1 | 1.61e5 | 5413 |
| Sk1 (Sphingosine kinase 1) | 1 | 94738 | 5464 |
| for (foraging) | 1 | 1.34e5 | 4656 |
| for (foraging) | 2 | 96084 | 3582 |
| CG31093 | 1 | 1.08e5 | 5862 |
| CR31700 (pseudo) | 1 | 1.26e5 | 5047 |
| CG17122 | 1 | 1.44e5 | 6485 |
| Lfg (Lifeguard) | 1 | 1.06e5 | 4592 |
| Urod (Uroporphyrinogen decarboxylase) | 1 | 1.36e5 | 5110 |
| S-Lap5 (Sperm-Leucylaminopeptidase 5) | 1 | 97798 | 4322 |
| Septin4 (Septin 4) | 1 | 1.72e5 | 6102 |
